The values below come from publication PMC11066007, “CORVET-specific subunit levels determine the balance between HOPS/CORVET endosomal tethering complexes” (Scientific Reports, 2024).

In test [1] the target is T1, VPS41-FLAG (human, UniProt P49754 1-854).
T1 construct: VPS41, human, HOPS-specific subunit; DNA region encoding the full-length protein fused with a FLAG tag; The label puts FLAG after the name, but the methods say N-terminal tags were used for VPS41 and VPS39; also called HOPS-specific VPS41; source: HEK293, stably transfected (pCMV3), in lysate; not shown: FLAG, N-terminal, kept
T1 sequence (looked up): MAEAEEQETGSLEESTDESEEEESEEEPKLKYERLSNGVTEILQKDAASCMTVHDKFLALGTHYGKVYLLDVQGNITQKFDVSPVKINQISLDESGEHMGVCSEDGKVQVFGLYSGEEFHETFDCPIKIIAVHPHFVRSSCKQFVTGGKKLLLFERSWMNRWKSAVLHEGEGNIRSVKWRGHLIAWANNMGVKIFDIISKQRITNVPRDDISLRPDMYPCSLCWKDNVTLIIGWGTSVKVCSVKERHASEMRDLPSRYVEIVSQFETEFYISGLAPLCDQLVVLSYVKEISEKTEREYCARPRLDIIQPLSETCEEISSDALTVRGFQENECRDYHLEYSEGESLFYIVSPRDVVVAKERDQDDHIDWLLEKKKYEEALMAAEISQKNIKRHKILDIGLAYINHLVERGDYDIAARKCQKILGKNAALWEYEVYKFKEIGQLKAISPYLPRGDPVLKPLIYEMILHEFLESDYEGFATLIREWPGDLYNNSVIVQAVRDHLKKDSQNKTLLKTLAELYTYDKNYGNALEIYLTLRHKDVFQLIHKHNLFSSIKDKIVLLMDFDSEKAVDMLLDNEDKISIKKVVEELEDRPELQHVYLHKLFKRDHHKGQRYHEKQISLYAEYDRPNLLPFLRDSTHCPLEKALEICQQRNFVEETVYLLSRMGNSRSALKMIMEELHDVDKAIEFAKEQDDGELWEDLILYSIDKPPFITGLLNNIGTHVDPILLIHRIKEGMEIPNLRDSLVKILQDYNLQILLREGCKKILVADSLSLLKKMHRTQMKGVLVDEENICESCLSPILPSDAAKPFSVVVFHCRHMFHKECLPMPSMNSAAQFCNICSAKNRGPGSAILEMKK
As to the kind of experiment: co-IP; anti-FLAG beads on total lysates of HEK293 cells stably transfected with a FLAG-tagged specific subunit, with or without transient overexpression of the counterpart subunit (control: pCMV); endogenous VPS11 and VPS18 detected by western blot, densitometry with ImageJ; lysis buffer 50 mM TRIS-HCl pH 7.5, 150 mM NaCl, 1% Triton X-100, 5 mM EDTA; 1.5 h at 4 °C.

Test [2] has as its target T2, VPS39-FLAG (human, UniProt Q96JC1 1-886).
T2 construct: VPS39, human, HOPS-specific subunit; DNA region encoding the full-length protein fused with a FLAG tag; also called HOPS-specific VPS39; not shown: FLAG, N-terminal, kept
T2 sequence (looked up): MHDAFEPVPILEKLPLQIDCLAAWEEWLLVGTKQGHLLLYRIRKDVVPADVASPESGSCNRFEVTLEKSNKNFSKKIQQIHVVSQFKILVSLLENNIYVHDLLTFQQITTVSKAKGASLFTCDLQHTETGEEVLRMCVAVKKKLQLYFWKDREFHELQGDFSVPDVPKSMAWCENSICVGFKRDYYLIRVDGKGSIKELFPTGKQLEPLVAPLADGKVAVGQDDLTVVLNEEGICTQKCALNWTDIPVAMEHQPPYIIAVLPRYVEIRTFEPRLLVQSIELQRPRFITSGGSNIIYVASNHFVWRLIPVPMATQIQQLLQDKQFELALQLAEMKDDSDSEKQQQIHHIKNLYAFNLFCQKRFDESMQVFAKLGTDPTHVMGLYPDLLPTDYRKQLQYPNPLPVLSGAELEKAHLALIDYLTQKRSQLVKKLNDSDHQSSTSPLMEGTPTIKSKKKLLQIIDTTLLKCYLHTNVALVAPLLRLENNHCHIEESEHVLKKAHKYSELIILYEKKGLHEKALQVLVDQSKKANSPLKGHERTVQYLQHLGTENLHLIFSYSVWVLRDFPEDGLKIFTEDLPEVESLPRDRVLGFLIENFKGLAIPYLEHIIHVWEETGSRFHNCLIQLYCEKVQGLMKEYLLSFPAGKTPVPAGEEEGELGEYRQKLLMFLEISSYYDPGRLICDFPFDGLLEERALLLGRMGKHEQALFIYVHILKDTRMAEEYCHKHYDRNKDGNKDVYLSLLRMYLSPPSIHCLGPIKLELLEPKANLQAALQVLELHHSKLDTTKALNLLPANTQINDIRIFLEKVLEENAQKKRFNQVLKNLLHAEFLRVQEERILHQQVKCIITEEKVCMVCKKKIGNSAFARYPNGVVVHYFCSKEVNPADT
Described as above.

Results are given in words; binding and its absence hold for the method and conditions named. Binding seen in cells or lysates may run through a third protein. Some binding calls cover weakened binding; strength is not graded here. Where a sequence is shown, tags or fusion partners need not be part of it.

B1: VPS11 (natural protein, human (endogenous in HEK293), UniProt Q9H270 1-941, looked up)
chain: MAAYLQWRRFVFFDKELVKEPLSNDGAAPGATPASGSAASKFLCLPPGITVCDSGRGSLVFGDMEGQIWFLPRSLQLTGFQAYKLRVTHLYQLKQHNILASVGEDEEGINPLVKIWNLEKRDGGNPLCTRIFPAIPGTEPTVVSCLTVHENLNFMAIGFTDGSVTLNKGDITRDRHSKTQILHKGNYPVTGLAFRQAGKTTHLFVVTTENVQSYIVSGKDYPRVELDTHGCGLRCSALSDPSQDLQFIVAGDECVYLYQPDERGPCFAFEGHKLIAHWFRGYLIIVSRDRKVSPKSEFTSRDSQSSDKQILNIYDLCNKFIAYSTVFEDVVDVLAEWGSLYVLTRDGRVHALQEKDTQTKLEMLFKKNLFEMAINLAKSQHLDSDGLAQIFMQYGDHLYSKGNHDGAVQQYIRTIGKLEPSYVIRKFLDAQRIHNLTAYLQTLHRQSLANADHTTLLLNCYTKLKDSSKLEEFIKKKSESEVHFDVETAIKVLRQAGYYSHALYLAENHAHHEWYLKIQLEDIKNYQEALRYIGKLPFEQAESNMKRYGKILMHHIPEQTTQLLKGLCTDYRPSLEGRSDREAPGCRANSEEFIPIFANNPRELKAFLEHMSEVQPDSPQGIYDTLLELRLQNWAHEKDPQVKEKLHAEAISLLKSGRFCDVFDKALVLCQMHDFQDGVLYLYEQGKLFQQIMHYHMQHEQYRQVISVCERHGEQDPSLWEQALSYFARKEEDCKEYVAAVLKHIENKNLMPPLLVVQTLAHNSTATLSVIRDYLVQKLQKQSQQIAQDELRVRRYREETTRIRQEIQELKASPKIFQKTKCSICNSALELPSVHFLCGHSFHQHCFESYSESDADCPTCLPENRKVMDMIRAQEQKRDLHDQFQHQLKCSNDSFSVIADYFGRGVFNKLTLLTDPPTARLTSSLEAGLQRDLLMHSRRGT
notes: VPS11, shared class C core subunit of HOPS and CORVET, detected by anti-VPS11 western blot in anti-FLAG precipitates; also called core subunit VPS11; source: endogenous, HEK293 lysate
Regarding B1, the binding result in test [1] and in test [2] was “binds” in each case.

B2: VPS18 (natural protein, human (endogenous in HEK293), UniProt Q9P253 1-973, looked up)
chain: MASILDEYENSLSRSAVLQPGCPSVGIPHSGYVNAQLEKEVPIFTKQRIDFTPSERITSLVVSSNQLCMSLGKDTLLRIDLGKANEPNHVELGRKDDAKVHKMFLDHTGSHLLIALSSTEVLYVNRNGQKVRPLARWKGQLVESVGWNKALGTESSTGPILVGTAQGHIFEAELSASEGGLFGPAPDLYFRPLYVLNEEGGPAPVCSLEAERGPDGRSFVIATTRQRLFQFIGRAAEGAEAQGFSGLFAAYTDHPPPFREFPSNLGYSELAFYTPKLRSAPRAFAWMMGDGVLYGALDCGRPDSLLSEERVWEYPEGVGPGASPPLAIVLTQFHFLLLLADRVEAVCTLTGQVVLRDHFLEKFGPLKHMVKDSSTGQLWAYTERAVFRYHVQREARDVWRTYLDMNRFDLAKEYCRERPDCLDTVLAREADFCFRQRRYLESARCYALTQSYFEEIALKFLEARQEEALAEFLQRKLASLKPAERTQATLLTTWLTELYLSRLGALQGDPEALTLYRETKECFRTFLSSPRHKEWLFASRASIHELLASHGDTEHMVYFAVIMQDYERVVAYHCQHEAYEEALAVLARHRDPQLFYKFSPILIRHIPRQLVDAWIEMGSRLDARQLIPALVNYSQGGEVQQVSQAIRYMEFCVNVLGETEQAIHNYLLSLYARGRPDSLLAYLEQAGASPHRVHYDLKYALRLCAEHGHHRACVHVYKVLELYEEAVDLALQVDVDLAKQCADLPEEDEELRKKLWLKIARHVVQEEEDVQTAMACLASCPLLKIEDVLPFFPDFVTIDHFKEAICSSLKAYNHHIQELQREMEEATASAQRIRRDLQELRGRYGTVEPQDKCATCDFPLLNRPFYLFLCGHMFHADCLLQAVRPGLPAYKQARLEELQRKLGAAPPPAKGSARAKEAEGGAATAGPSREQLKADLDELVAAECVYCGELMIRSIDRPFIDPQRYEEEQLSWL
notes: VPS18, shared class C core subunit of HOPS and CORVET, detected by anti-VPS18 western blot in anti-FLAG precipitates; also called core subunit VPS18; source: endogenous, HEK293 lysate
Regarding B2, the binding result in test [1] and in test [2] was “binds” each time.
